# Test results from the supplement of paper PMC3741180, “A Novel High Throughput Biochemical Assay to Evaluate the HuR Protein-RNA Complex Formation” (PLoS ONE, 2013).
# By UniProt entry, the sequences of proteins in these tests, tags left out.
# UniProt Q15717, whole entry: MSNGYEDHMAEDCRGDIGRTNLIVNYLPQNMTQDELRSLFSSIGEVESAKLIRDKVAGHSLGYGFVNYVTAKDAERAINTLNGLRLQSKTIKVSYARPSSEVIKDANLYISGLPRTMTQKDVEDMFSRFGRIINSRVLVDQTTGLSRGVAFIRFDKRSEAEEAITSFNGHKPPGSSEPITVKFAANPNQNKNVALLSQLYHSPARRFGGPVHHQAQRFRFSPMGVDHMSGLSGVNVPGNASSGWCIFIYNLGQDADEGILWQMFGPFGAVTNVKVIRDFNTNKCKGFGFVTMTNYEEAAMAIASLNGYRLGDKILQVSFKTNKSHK
# Some of the results follow. This data set is noisy: repeats of one test often differ as much as different tests do.
# Biological target: HuR (ELAVL1) - TNFalpha ARE RNA complex (UniProt Q15717)
# Assay: AlphaScreen HuR-RNA complex signal Z-score relative to positive (Bi-TNF, DMSO) controls (Z-score (SD units of positive control)); higher = more complex signal
# Conditions: screen stage: primary screen; compound concentration: 25 nM
row,SMILES,AlphaScreen HuR-RNA complex signal Z-score
1,COc1ccnc(C[S+]([O-])c2nc3cc(OC(F)F)ccc3[nH]2)c1OC (stereo not drawn),3.29
2,O=C(O)[C@H](O)[C@@](O)(Cc1ccc(O)cc1)C(=O)O,2.02
3,C/C(=C\CO)CC[C@H](C)CCC[C@H](C)CCCC(C)C,1.94
4,O=c1ccc2ccccc2o1,0.719
5,NCCOB(c1ccccc1)c1ccccc1,2.19
6,CC1(C)C=Cc2cc3ccc(=O)oc3cc2O1,1.97
7,CN(C)CCCN1c2ccccc2Sc2ccc(Cl)cc21,-3.19
8,CCOC(=O)c1c(C)cc(O)cc1O,1
9,O=c1[nH]cnc2c1ncn2[C@@H]1O[C@H](CO)[C@@H](O)[C@H]1O,0.875
10,CCCCOc1cc(CC2CNC(=O)N2)ccc1OC (stereo not drawn),1.88
11,CC(C)Cn1c(=O)n(C)c(=O)c2[nH]cnc21,1.52
12,COc1cc([C@@H]2c3cc4c(cc3[C@@H](O[C@@H]3O[C@@H]5CO[C@@H](c6cccs6)O[C@H]5[C@H](O)[C@H]3O)[C@H]3COC(=O)[C@H]23)OCO4)cc(OC)c1O,0.909
13,COc1cc(OC)c2c(=O)c(-c3ccc4c(c3)OCO4)coc2c1,2.15
14,CCOc1ccc2nc3cc(N)ccc3c(N)c2c1,2.7
15,CCN(CC)CCNc1ccc(CO)c2sc3ccccc3c(=O)c12,1.69
16,O=c1c(O)cc([C@H]2Oc3cc(O)cc(O)c3C[C@H]2O)cc2c([C@H]3Oc4cc(O)cc(O)c4C[C@H]3O)cc(O)c(O)c12,2.09
17,O=C(COc1ccc(Cl)cc1)N1CCN(Cc2ccc3c(c2)OCO3)CC1,0.163
18,Cc1ccsc1/C=C/C1=NCCCN1C,1.13
19,CCCCCCCCCCCCCCCCOP(=O)([O-])OCC[N+](C)(C)C,0.93
20,CN(C)c1ccc(O)c2c1C[C@H]1C[C@H]3[C@H](N(C)C)C(O)=C(C(N)=O)C(=O)[C@@]3(O)C(O)=C1C2=O,1.55
21,CC(C)CCCC(C)C1CCC2C3=CCC4CC(O)CCC4(C)C3CCC21C (stereo not drawn),1.78
22,COc1cccc(OC)c1C(=O)N[C@@H]1C(=O)N2[C@@H]1SC(C)(C)[C@@H]2C(=O)O,0.439
23,Cc1ccc(S(=O)(=O)NC(=O)NN2CCCCCC2)cc1,1.38
24,CC(C)(C)CC(C)(C)c1ccc(O)c(Cc2ccc(Cl)cc2Cl)c1,2.69
25,C[C@H]1[C@H](C)CC[C@]2(C(=O)O)CC[C@]3(C)C(=CC[C@@H]4[C@@]5(C)C[C@@H](O)[C@H](O)[C@@](C)(CO)[C@@H]5CC[C@]43C)[C@H]12,1.18
26,CCOC(=O)c1ccc(N)cc1,0.0241
27,CCN(CC)CCOC(=O)C(c1ccccc1)c1ccccc1,0.338
28,COC(=O)[C@@H]1OC(=O)[C@H]2O[C@@]23[C@@]1(C)CCC1[C@@]2(C)CCC(=O)C(C)(C)C2C[C@@H](OC(C)=O)[C@]13C (stereo partly drawn),1.61

# Three entries out of the list, arranged by count of non-hydrogen atoms, descending:
row,SMILES,AlphaScreen HuR-RNA complex signal Z-score
17,O=C(COc1ccc(Cl)cc1)N1CCN(Cc2ccc3c(c2)OCO3)CC1,0.163
22,COc1cccc(OC)c1C(=O)N[C@@H]1C(=O)N2[C@@H]1SC(C)(C)[C@@H]2C(=O)O,0.439
14,CCOc1ccc2nc3cc(N)ccc3c(N)c2c1,2.7
